Our source for the EC50 values is US7094869B2, “Low molecular weight peptidomimetic growth hormone secretagogues” (Genentech, Inc., priority 1994, dated 2006).

Chains of the proteins cited; added tags and fusions are not shown.
UniProt O08725, whole entry: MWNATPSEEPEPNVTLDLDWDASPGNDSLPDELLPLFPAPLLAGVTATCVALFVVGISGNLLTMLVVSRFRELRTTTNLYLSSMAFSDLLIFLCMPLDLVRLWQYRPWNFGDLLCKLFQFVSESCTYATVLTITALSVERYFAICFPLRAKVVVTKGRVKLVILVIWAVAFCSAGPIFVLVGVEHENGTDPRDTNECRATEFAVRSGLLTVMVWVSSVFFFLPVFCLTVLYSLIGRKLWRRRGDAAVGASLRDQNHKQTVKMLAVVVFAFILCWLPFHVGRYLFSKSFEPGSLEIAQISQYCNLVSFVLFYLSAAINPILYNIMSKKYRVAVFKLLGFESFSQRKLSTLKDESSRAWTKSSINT

For the test, the target named is rat pituitary cells (Rattus norvegicus, UniProt O08725). As to conditions: read-out: PIT Cell EC50; Table III, formula IV compounds; GH release, 15 min incubation. Here is the method:
Pituitaries from ten rats were removed, the posterior pituitary discarded and the anterior pituitary placed in Hanks' Balanced Salt Solution (HBSS: without calcium chloride, w/o magnesium chloride, w/o magnesium sulfate; Gibco) containing 20 mM HEPES (Gibco) and 100 U/ml penicillin streptomycin (PS: JRH Biosciences). Under sterile conditions, pituitaries were rinsed twice then minced into small fragments with a razor blade. […] After the incubation, fragments were triturated to yield small clumps and single cells. The cells were centrifuged 1000× g for 5 min, resuspended, counted and plated at a final cell concentration of 100,000 cells/ml. Incubation media was DME low glucose media w/NaHCO3 (Gibco) containing 20 mM hepes, 100 U/ml PS and 10% FBS (Hyclone A-111-L). Cells were plated at 0.5 ml per well in 48 well plates (Falcon) and incubated at 37° C. in 5% C02 for three days. […] STATISTICS: The mean for each group was determined and analyzed by one-way analysis of variance with a post-hoc Student-Newman-Keuls. […] The EC50 was calculated using a 4-parameter curve-fit program (Kaleidagraph). […] RIA of pituitary hormones: LH, FSH, TSH, and Prolactin were determined with commercially available kits from Amersham, and ACTH levels were determined by a RIA kit from ICN. […]

For `NCCCC[C@H](NC(=O)[C@H](Cc1ccccc1)NC(=O)[C@@H](Cc1c[nH]c2ccccc12)NC(=O)[C@@H](Cc1ccc2ccccc2c1)NC(=O)C1CCNCC1)C(N)=O` [(inip) b w F K amide], the concentration giving a half-maximal response (EC50) stood at 1.1 nM.

As usually defined, the EC50 is the midpoint of the concentration-response curve.
